{"sequences": {"note": "Protein sequences, listed by entry. Tags and fused reporters are not part of them.", "UniProt Q5SRE5": "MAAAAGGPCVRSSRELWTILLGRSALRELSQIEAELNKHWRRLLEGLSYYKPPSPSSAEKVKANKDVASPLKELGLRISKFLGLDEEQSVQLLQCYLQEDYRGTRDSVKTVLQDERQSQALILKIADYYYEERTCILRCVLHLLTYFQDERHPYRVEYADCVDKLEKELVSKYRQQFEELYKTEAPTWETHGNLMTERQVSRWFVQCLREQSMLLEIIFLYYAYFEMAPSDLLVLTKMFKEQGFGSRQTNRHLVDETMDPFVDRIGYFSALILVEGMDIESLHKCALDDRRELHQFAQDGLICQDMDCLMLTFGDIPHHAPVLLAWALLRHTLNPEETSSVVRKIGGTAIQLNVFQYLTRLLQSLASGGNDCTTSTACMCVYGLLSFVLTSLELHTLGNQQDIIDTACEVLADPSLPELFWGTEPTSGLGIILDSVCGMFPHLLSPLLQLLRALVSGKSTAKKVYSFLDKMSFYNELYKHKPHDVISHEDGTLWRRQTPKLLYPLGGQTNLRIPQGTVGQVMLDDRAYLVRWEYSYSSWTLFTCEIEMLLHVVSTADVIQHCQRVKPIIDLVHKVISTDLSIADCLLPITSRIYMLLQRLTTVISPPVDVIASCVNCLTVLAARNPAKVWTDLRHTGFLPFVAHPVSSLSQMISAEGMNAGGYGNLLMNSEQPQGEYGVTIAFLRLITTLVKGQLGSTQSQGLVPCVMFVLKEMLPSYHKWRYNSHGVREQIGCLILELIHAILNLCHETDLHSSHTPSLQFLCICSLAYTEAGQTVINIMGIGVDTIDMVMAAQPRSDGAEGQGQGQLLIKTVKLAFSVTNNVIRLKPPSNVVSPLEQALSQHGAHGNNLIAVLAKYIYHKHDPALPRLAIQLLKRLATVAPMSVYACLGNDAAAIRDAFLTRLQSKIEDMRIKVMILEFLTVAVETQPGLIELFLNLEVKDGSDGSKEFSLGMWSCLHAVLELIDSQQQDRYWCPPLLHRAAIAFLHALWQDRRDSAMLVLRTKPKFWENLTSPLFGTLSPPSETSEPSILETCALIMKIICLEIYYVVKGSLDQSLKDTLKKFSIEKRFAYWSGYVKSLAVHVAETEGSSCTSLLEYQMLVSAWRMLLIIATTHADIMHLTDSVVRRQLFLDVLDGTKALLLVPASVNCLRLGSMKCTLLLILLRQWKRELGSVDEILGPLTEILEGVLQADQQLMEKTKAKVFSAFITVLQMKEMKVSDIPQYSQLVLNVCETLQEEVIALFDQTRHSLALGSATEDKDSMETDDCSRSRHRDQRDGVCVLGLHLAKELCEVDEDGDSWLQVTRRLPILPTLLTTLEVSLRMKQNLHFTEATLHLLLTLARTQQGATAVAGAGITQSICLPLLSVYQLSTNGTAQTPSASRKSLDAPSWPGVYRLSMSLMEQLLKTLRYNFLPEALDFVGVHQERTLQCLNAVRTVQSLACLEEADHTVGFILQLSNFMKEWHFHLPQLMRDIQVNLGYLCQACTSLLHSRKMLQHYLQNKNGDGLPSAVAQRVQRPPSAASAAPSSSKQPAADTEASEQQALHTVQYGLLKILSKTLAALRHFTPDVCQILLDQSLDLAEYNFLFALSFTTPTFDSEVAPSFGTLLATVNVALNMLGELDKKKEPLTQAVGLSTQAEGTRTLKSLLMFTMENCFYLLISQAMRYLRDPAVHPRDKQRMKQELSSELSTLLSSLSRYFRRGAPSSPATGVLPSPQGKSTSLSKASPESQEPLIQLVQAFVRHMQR", "UniProt Q92621": "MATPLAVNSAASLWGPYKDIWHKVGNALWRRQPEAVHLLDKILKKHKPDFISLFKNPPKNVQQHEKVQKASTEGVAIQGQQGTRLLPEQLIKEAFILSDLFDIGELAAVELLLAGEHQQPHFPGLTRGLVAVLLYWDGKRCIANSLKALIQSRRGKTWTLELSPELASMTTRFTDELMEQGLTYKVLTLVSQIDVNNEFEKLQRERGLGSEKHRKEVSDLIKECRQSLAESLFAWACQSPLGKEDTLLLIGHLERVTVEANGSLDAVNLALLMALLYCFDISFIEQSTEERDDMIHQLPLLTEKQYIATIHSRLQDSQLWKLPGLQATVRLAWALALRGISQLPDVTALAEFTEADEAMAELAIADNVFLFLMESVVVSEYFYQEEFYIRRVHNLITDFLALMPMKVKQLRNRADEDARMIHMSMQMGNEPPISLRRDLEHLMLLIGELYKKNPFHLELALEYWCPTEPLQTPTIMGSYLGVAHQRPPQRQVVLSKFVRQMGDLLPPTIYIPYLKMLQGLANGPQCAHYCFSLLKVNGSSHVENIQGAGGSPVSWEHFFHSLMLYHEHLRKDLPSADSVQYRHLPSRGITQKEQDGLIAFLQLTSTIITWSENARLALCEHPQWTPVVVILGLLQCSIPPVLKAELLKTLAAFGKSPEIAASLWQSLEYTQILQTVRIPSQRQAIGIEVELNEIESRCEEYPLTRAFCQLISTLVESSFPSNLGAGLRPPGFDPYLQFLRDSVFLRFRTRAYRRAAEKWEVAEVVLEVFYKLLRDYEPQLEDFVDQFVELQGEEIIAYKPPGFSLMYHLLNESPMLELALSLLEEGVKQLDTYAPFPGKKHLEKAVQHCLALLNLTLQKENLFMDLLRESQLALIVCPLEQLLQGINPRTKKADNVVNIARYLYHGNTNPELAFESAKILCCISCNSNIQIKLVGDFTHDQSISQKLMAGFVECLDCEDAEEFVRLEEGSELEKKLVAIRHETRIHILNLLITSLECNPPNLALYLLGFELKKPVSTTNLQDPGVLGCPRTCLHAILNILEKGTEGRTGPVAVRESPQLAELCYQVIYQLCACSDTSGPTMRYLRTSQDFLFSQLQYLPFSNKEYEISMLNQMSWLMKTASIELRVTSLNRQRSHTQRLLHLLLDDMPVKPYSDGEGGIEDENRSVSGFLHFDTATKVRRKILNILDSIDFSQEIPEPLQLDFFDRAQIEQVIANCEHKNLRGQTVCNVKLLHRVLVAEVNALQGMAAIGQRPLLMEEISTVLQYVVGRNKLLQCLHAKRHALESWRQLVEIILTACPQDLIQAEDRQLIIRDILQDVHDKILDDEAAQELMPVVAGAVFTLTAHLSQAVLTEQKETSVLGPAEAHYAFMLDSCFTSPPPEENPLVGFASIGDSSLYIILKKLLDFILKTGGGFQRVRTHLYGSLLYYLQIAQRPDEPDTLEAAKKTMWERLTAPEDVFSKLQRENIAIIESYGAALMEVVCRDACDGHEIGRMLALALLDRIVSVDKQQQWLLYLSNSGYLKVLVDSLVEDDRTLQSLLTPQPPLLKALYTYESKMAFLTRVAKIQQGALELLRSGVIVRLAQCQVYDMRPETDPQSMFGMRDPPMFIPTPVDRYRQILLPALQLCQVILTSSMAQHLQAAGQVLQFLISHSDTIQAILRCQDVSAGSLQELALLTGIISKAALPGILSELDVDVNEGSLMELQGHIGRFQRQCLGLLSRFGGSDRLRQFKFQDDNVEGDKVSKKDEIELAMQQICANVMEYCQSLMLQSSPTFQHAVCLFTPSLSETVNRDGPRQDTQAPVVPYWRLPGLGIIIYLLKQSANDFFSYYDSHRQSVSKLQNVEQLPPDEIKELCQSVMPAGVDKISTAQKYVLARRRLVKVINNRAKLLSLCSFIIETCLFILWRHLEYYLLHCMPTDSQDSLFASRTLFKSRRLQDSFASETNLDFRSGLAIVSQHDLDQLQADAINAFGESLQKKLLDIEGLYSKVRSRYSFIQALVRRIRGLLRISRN"}, "source": "paper PMC5135769", "key": {"[1]": {"target": "T1, Nup93 (human (endogenous in DLD1)) (UniProt Q8N1F7)", "T1 sequence": "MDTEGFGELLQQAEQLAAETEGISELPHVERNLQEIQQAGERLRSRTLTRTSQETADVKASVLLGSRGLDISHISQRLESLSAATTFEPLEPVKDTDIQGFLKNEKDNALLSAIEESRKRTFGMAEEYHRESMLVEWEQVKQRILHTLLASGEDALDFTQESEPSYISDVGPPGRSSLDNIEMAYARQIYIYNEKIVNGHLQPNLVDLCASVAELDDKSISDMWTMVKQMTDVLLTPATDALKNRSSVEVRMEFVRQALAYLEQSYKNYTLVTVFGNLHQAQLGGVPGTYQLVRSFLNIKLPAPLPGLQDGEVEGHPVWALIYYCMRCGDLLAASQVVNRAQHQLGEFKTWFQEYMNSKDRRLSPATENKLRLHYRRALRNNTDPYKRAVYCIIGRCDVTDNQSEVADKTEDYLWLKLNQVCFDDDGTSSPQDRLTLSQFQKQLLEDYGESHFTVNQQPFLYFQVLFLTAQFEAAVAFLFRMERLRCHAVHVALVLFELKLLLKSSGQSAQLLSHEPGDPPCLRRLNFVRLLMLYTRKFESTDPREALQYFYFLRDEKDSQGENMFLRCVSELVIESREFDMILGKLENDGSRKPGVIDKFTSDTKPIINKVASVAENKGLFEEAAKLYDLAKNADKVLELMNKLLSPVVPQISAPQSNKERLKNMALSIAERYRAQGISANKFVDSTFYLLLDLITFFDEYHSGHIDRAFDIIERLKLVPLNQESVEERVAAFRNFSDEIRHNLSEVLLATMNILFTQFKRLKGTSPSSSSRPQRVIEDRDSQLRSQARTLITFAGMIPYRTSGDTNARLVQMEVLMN", "test": "co-IP; IP with anti-Nup93 antibody from DLD1 whole-cell extracts, protein A dynabeads, Western blot; Co-IP buffer 50 mM Tris-HCl pH 8.0, 150 mM NaCl, 0.5% NP-40; also done in Nup205-depleted (siRNA) cells"}, "[2]": {"target": "Nup188 (human (endogenous in DLD1)) (UniProt Q5SRE5)", "test": "co-IP; reverse co-IP: IP with anti-Nup188 antibody from DLD1 whole-cell extracts, protein A dynabeads, Western blot; Co-IP buffer 50 mM Tris-HCl pH 8.0, 150 mM NaCl, 0.5% NP-40"}}, "note": "Results are given in words; binding and its absence hold for the method and conditions named. Binding seen in cells or lysates may run through a third protein. Some entries that bind do so weakly or less than the wild type.", "data": [{"substance": "Nup205 (from UniProt Q92621 1-2012)", "values": [{"measurement": "binding", "setting": "[1]", "value": "binds"}, {"measurement": "binding", "setting": "[2]", "value": "no binding"}]}]}
